{
  "sequences": {"note": "Chains of the proteins cited; added tags and fusions are not shown.", "UniProt Q0JBA9, entry or part of it": "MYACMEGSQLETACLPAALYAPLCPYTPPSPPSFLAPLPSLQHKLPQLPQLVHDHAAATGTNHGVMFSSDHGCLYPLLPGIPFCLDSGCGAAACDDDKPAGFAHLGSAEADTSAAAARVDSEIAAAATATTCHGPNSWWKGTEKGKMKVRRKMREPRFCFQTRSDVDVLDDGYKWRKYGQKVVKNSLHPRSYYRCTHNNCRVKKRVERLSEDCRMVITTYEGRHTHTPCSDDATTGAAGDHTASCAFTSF"},
  "source": "paper PMC7819943",
  "about": "“Rice protein-binding microarrays: a tool to detect cis-acting elements near promoter regions in rice”",
  "note": "The list shows a part of the results.",
  "data": [
    {"molecular_target": "OsWRKY34 (Oryza sativa, UniProt Q0JBA9 1-250)", "assay": "protein-binding microarray (RPBM); PBS, 2% BSA, 51.3 ng/ul salmon testes DNA, 50 uM zinc acetate, 200 nM TF, 25 C, 1 h; high values mean tight binding", "conditions": "protein: recombinant; tags: N-terminal polyhistidine and DsRed monomer fusion (pET32a); label: CyDye5-dUTP incorporated in the synthesized complementary strand; 3' TTTTT single-stranded linker to array surface; dsDNA, one strand shown", "in_short": "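Transcription factors were each fused at the N-terminus to a polyhistidine tag plus DsRed and expressed in E. coli BL21-CodonPlus before Ni–NTA purification. Binding to a double-stranded custom Agilent array was carried out with 200 nM protein at 25 °C for 1 h in PBS, 2% BSA, salmon testes DNA and 50 µM zinc acetate. The binding signal is per-feature fluorescence intensity, in arbitrary units, on an Axon 4000B scanner.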", "values": [
      {"sequence": "TGTCATACACACATTACGTCTTGGAGTCCGTGCTGCAGCTCGGAGTCACCTAGTGCAG", "binding signal": "11500 fluorescence intensity (a.u.)"},
      {"sequence": "GCCGGGGTGACGTCACCATCATCACTCCATTATTGCTGCGCGGAGTCACCTAGTGCAG", "binding signal": "9750 fluorescence intensity (a.u.)"},
      {"sequence": "CTGTTATATGGCCCTGCTACTGCTCTTATTGCTGCTATTACGGAGTCACCTAGTGCAG", "binding signal": "9280 fluorescence intensity (a.u.)"},
      {"sequence": "AATTAACGGTCTTAGATAGTTTTACCTTGGTTATCTTCTCCGGAGTCACCTAGTGCAG", "binding signal": "8210 fluorescence intensity (a.u.)"},
      {"sequence": "AAGAGATTGTTAAAATGACTTTATTACATTATTTAATAACCGGAGTCACCTAGTGCAG", "binding signal": "9950 fluorescence intensity (a.u.)"},
      {"sequence": "TTCCCTTGTGTTTTTTGCTGACTGGTTGTGCTCTTTAATTCGGAGTCACCTAGTGCAG", "binding signal": "8940 fluorescence intensity (a.u.)"},
      {"sequence": "CCTGCCCGGTGTGCTGTGACTTGCCGTTATCGTCACCGTTCGGAGTCACCTAGTGCAG", "binding signal": "10200 fluorescence intensity (a.u.)"},
      {"sequence": "GCATGAGGCCCAGTTTCTTCCTCTCTTCACTCTCTCTCTTCGGAGTCACCTAGTGCAG", "binding signal": "8350 fluorescence intensity (a.u.)"},
      {"sequence": "GGGAGTGAGTATGACTGTATGACATGTGGGGTTTATTTTTCGGAGTCACCTAGTGCAG", "binding signal": "12500 fluorescence intensity (a.u.)"},
      {"sequence": "CTTCACTCCGGAGTCTCTCGTCCTCTCGGGCCACCCACCACGGAGTCACCTAGTGCAG", "binding signal": "8160 fluorescence intensity (a.u.)"},
      {"sequence": "ATATTATTTTACTCGCTCTAATCCTACTATTTTCTTTTACCGGAGTCACCTAGTGCAG", "binding signal": "8030 fluorescence intensity (a.u.)"},
      {"sequence": "TTCTTATCTATCACTCGATTTTCTCTCTCAATTTTACATTCGGAGTCACCTAGTGCAG", "binding signal": "9960 fluorescence intensity (a.u.)"},
      {"sequence": "GTTTTTTTTCTCTATGTCCCTAGCTTCGCTTTCCTTCTTTCGGAGTCACCTAGTGCAG", "binding signal": "11900 fluorescence intensity (a.u.)"},
      {"sequence": "TCACGCACGCCAGTTGTCACGCCACCCACTTTGCGCCATGCGGAGTCACCTAGTGCAG", "binding signal": "8640 fluorescence intensity (a.u.)"},
      {"sequence": "TTATTACAGTGTTTTACTCCTACTACTACTTACTTCTCTTCGGAGTCACCTAGTGCAG", "binding signal": "10100 fluorescence intensity (a.u.)"},
      {"sequence": "GCTCCTCACTTCGCTGTTTTTTTTTTTGGGTTTGTTCGGGCGGAGTCACCTAGTGCAG", "binding signal": "11200 fluorescence intensity (a.u.)"},
      {"sequence": "CCGCCTCGCCTCGCCTCGCTGCCTGCGCTTCACAAATCACCGGAGTCACCTAGTGCAG", "binding signal": "10500 fluorescence intensity (a.u.)"},
      {"sequence": "ATCATGTCCTTTTTGACAACCTACTTCTTCAGTTACATCGCGGAGTCACCTAGTGCAG", "binding signal": "8690 fluorescence intensity (a.u.)"},
      {"sequence": "ACGTGGGCCTCACATGTCATACTATCTACGTCATCTCCTACGGAGTCACCTAGTGCAG", "binding signal": "9510 fluorescence intensity (a.u.)"},
      {"sequence": "AATCATACTTCTCGAGGTTTGTTTCAGGTTAAACACAATACGGAGTCACCTAGTGCAG", "binding signal": "8720 fluorescence intensity (a.u.)"},
      {"sequence": "AATATCATTATCATTGTTGTTGTTGACTCCTCTTTCATGTCGGAGTCACCTAGTGCAG", "binding signal": "9480 fluorescence intensity (a.u.)"},
      {"sequence": "GCTCTCCGTCGTGTTCCTCTACTTCTTCTACGTGATTTCCCGGAGTCACCTAGTGCAG", "binding signal": "11700 fluorescence intensity (a.u.)"},
      {"sequence": "AGTGTTAGTTGACTGTTAGTCAAAGGTTAGTTTTTTTCGTCGGAGTCACCTAGTGCAG", "binding signal": "9180 fluorescence intensity (a.u.)"},
      {"sequence": "ATCTCCTTTTCCGTTGCAAAGGCACTGAGTTTATATTTCGCGGAGTCACCTAGTGCAG", "binding signal": "9020 fluorescence intensity (a.u.)"},
      {"sequence": "CTTTGATTTGGCATCAATTTTTTTCATGATCTTTGCTTCTCGGAGTCACCTAGTGCAG", "binding signal": "9620 fluorescence intensity (a.u.)"},
      {"sequence": "ACACACACCGCGTCTTGGAGTCCGTGCTACAGCTGACTATCGGAGTCACCTAGTGCAG", "binding signal": "8700 fluorescence intensity (a.u.)"},
      {"sequence": "CTAGACCCTTTTGAGTTAACAACACATTCACTGTTTTTCACGGAGTCACCTAGTGCAG", "binding signal": "8830 fluorescence intensity (a.u.)"},
      {"sequence": "GGTGGGAGTATTAGATGGGGTCTAATCGAGTATTAGGGTGCGGAGTCACCTAGTGCAG", "binding signal": "8090 fluorescence intensity (a.u.)"},
      {"sequence": "CCTATCTATGTATTTGTTGGCGTCCAACGGCTATGATCATCGGAGTCACCTAGTGCAG", "binding signal": "8690 fluorescence intensity (a.u.)"},
      {"sequence": "TTTTACACTTCAGTTTTGTTCTTGTTTTTCCAGGCGTATACGGAGTCACCTAGTGCAG", "binding signal": "8170 fluorescence intensity (a.u.)"},
      {"sequence": "AGGTTCTGTCCATCTTCACCTCTCCTATTCCATATCATCACGGAGTCACCTAGTGCAG", "binding signal": "10700 fluorescence intensity (a.u.)"},
      {"sequence": "ACTCTCAACCACCTGCAGCATGCAACTTCCATGATGCCTCCGGAGTCACCTAGTGCAG", "binding signal": "8370 fluorescence intensity (a.u.)"},
      {"sequence": "CTGCATGCTCTGTTTCTTCGAGGTTTATGTCAGTCGAAGACGGAGTCACCTAGTGCAG", "binding signal": "8180 fluorescence intensity (a.u.)"},
      {"sequence": "GTGAAGGGCGCCCGCGGCGGTGGGGCGGCGGTGGTGGCGGCGGAGTCACCTAGTGCAG", "binding signal": "9650 fluorescence intensity (a.u.)"},
      {"sequence": "TCTGTTTTACAATTGTATTCCTGTCAGAATCCTGTGCTTTCGGAGTCACCTAGTGCAG", "binding signal": "9350 fluorescence intensity (a.u.)"},
      {"sequence": "GTTGCTTGGGATCACGTTTCTTGACTTTTGTAGGATTTAGCGGAGTCACCTAGTGCAG", "binding signal": "8830 fluorescence intensity (a.u.)"},
      {"sequence": "TAATCCTAATCCCAGAACTATCCCATGTTTTGCATCATACCGGAGTCACCTAGTGCAG", "binding signal": "9500 fluorescence intensity (a.u.)"},
      {"sequence": "CTTCGGCGCCGGAGCAGGGCGGCGGCGCAGGCGAAGGCGGCGGAGTCACCTAGTGCAG", "binding signal": "15100 fluorescence intensity (a.u.)"},
      {"sequence": "ATTTTTTTTTCCTTATACATTTCCTTTGCTTTTTTTTTTACGGAGTCACCTAGTGCAG", "binding signal": "9020 fluorescence intensity (a.u.)"},
      {"sequence": "TGGGGAGGCAGGAGTGCATGTTGGGGAGGAGACGATGACGCGGAGTCACCTAGTGCAG", "binding signal": "10200 fluorescence intensity (a.u.)"},
      {"sequence": "TTTTTAACTTTTTTATAACTTTTTGAACGTCATGCACACACGGAGTCACCTAGTGCAG", "binding signal": "8500 fluorescence intensity (a.u.)"},
      {"sequence": "GACGCTGTTGACTTTTTCTCACATGTTTGACCATTCGTCTCGGAGTCACCTAGTGCAG", "binding signal": "28900 fluorescence intensity (a.u.)"}
    ]}
  ]
}
